Only a part is listed here, and it is no random draw. At the low end of the ranking, values are background and their order means little.

For one test, the target named is T1, ELK1 (UniProt P19419).
T1 sequence: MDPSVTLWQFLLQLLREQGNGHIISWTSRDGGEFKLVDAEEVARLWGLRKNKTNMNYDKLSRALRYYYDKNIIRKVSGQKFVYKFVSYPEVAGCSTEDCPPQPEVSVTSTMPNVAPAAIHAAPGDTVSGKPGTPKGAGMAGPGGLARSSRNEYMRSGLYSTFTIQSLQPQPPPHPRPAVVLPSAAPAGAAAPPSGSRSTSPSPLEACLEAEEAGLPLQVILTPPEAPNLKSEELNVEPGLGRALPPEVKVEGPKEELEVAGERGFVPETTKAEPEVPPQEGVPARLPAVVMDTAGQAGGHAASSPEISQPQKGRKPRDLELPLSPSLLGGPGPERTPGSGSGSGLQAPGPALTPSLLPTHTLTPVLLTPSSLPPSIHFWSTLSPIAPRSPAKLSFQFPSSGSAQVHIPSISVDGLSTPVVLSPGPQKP
Put plainly: DAPPL (digital affinity profiling via proximity ligation, sequencing). Particulars: 10 mM Tris-HCl pH 7.5, 50 mM NaCl, 1 mM DTT, 4% glycerol, room temperature, 30 min; GST-TFs on glutathione beads, 16-mer random dsDNA library, 0.1% …; high values mean tight binding; double strand, one strand shown; scale: fold enrichment (6-mer frequency, TF over GST control).
In turn, TGAGTC registered a binding signal of 0.207.

For GAGTCA, the binding signal was found to be 0.269.

As to AGAGGG, the binding signal turned out to be 0.708.

For AGTTCG, the binding signal amounted to 0.711.

As to CGCAGA, the binding signal turned out to be 0.797.

For the sequence GCATGA, the binding signal is 0.782.

Turning to AAAGGA, the binding signal worked out at 0.826.

Take CCATCG: the binding signal amounted to 0.842.

In the case of CGCATT, the binding signal was 0.797.

Sequence GGGAGC came in with a binding signal of 0.404.

Regarding GGTTGC, the binding signal worked out at 0.956.

The sequence GTCGGC returned a binding signal of 0.41.

With CGGCAG, the binding signal came out at 0.826.

Take CCGAGA: the binding signal stood at 0.596.

The sequence TGAGAT yielded a binding signal of 0.692.

In turn, GGCCAA registered a binding signal of 0.808.

In the case of ACAGCG, the binding signal turned out to be 0.76.

Turning to GCGGAT, the binding signal stood at 0.875.

With GGCCCA, the binding signal stood at 0.825.

The sequence CACGGT registered a binding signal of 0.953.

Regarding CAGTAC, the binding signal turned out to be 0.841.

As to CAATCG, the binding signal was found to be 0.853.

ACAGAC: the binding signal was determined as 0.753.

TCGGCA had a binding signal of 0.722.

In the case of CGAGGA, the binding signal came out at 0.686.

Take CCGAGG: the binding signal amounted to 0.744.

For CCGTGG, the binding signal came out at 0.42.

For the sequence GCCCAG, the binding signal came to 0.768.

Turning to AAGACC, the binding signal stood at 0.852.

GAGCGG yielded a binding signal of 0.53.

In the case of CCAGGT, the binding signal worked out at 0.784.

Regarding CCAGTG, the binding signal amounted to 0.462.

For the sequence GTCGGT, the binding signal worked out at 0.281.

The sequence GTGGAG came in with a binding signal of 0.386.

Take GTCCAG: the binding signal came to 0.6.

Consider CTAGAG, for which the binding signal was found to be 0.811.

For the sequence GGCCGA, the binding signal amounted to 0.738.

In the case of CGTGTA, the binding signal is 0.625.

On to ACGGGC, for which the binding signal turned out to be 0.819.

Another test deals with T2, ELK3 (UniProt P41970).
T2 sequence: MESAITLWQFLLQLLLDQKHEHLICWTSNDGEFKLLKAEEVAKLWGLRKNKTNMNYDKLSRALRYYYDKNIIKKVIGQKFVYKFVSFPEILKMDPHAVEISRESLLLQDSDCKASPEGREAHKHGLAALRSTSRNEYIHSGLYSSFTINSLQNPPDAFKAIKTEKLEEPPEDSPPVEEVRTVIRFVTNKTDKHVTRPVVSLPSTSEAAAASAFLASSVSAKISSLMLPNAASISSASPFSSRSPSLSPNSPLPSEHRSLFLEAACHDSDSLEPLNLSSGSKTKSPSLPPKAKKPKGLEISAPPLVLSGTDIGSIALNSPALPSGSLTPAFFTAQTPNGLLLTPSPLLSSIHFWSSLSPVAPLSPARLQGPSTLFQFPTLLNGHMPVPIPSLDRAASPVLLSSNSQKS
The description is as above. Particulars: 10 mM Tris-HCl pH 7.5, 50 mM NaCl, 1 mM DTT, 4% glycerol, room temperature, 30 min; GST-TFs on glutathione beads, 16-mer random dsDNA library, 0.1% …; high values mean tight binding; double strand, one strand shown; scale: fold enrichment (6-mer frequency, TF over GST control).
As for TGAGTC, the binding signal turned out to be 0.178.

Regarding GAGTCA, the binding signal came out at 0.31.

In the case of AGAGGG, the binding signal turned out to be 0.682.

For AGTTCG, the binding signal was 0.832.

Consider CGCAGA, for which the binding signal came out at 0.694.

Sequence GCATGA gave a binding signal of 0.871.

Sequence AAAGGA returned a binding signal of 0.807.

Regarding CCATCG, the binding signal worked out at 0.921.

As for CGCATT, the binding signal amounted to 0.765.

With GGGAGC, the binding signal is 0.388.

On to GGTTGC, for which the binding signal worked out at 0.969.

Sequence GTCGGC displayed a binding signal of 0.384.

For CGGCAG, the binding signal was found to be 0.914.

CCGAGA returned a binding signal of 0.592.

In turn, TGAGAT showed a binding signal of 0.648.

GGCCAA yielded a binding signal of 0.807.

The sequence ACAGCG had a binding signal of 0.858.

For the sequence GCGGAT, the binding signal came out at 0.857.

GGCCCA registered a binding signal of 0.747.

With CACGGT, the binding signal came to 0.844.

CAGTAC: the binding signal amounted to 0.792.

CAATCG registered a binding signal of 0.933.

As to ACAGAC, the binding signal stood at 0.771.

In turn, TCGGCA returned a binding signal of 0.712.

CGAGGA: the binding signal was found to be 0.675.

With CCGAGG, the binding signal was 0.737.

The sequence CCGTGG displayed a binding signal of 0.399.

GCCCAG had a binding signal of 0.749.

As to AAGACC, the binding signal is 0.81.

For GAGCGG, the binding signal turned out to be 0.509.

CCAGGT had a binding signal of 0.74.

Sequence CCAGTG gave a binding signal of 0.438.

Sequence GTCGGT displayed a binding signal of 0.306.

For GTGGAG, the binding signal stood at 0.391.

GTCCAG showed a binding signal of 0.661.

In turn, CTAGAG gave a binding signal of 0.926.

Regarding GGCCGA, the binding signal was 0.821.

With CGTGTA, the binding signal is 0.676.

ACGGGC displayed a binding signal of 0.843.

The target in another test is T3, SPIC (UniProt Q8N5J4).
T3 sequence: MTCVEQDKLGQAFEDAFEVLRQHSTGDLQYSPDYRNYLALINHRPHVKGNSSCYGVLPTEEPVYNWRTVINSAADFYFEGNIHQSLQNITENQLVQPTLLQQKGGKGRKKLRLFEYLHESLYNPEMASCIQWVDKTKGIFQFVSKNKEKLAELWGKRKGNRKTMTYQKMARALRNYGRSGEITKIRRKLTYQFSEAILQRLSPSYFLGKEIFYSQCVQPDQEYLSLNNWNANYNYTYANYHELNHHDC
The description is as above. Particulars: 10 mM Tris-HCl pH 7.5, 50 mM NaCl, 1 mM DTT, 4% glycerol, room temperature, 30 min; GST-TFs on glutathione beads, 16-mer random dsDNA library, 0.1% …; high values mean tight binding; double strand, one strand shown; scale: fold enrichment (6-mer frequency, TF over GST control).
With TGAGTC, the binding signal turned out to be 0.212.

GAGTCA showed a binding signal of 0.279.

Sequence AGAGGG yielded a binding signal of 0.685.

AGTTCG had a binding signal of 0.931.

CGCAGA returned a binding signal of 0.755.

Turning to GCATGA, the binding signal is 0.811.

AAAGGA came in with a binding signal of 0.811.

As for CCATCG, the binding signal was found to be 0.81.

The sequence CGCATT came in with a binding signal of 0.754.

Turning to GGGAGC, the binding signal was found to be 0.411.

As to GGTTGC, the binding signal amounted to 0.982.

In turn, GTCGGC gave a binding signal of 0.425.

Sequence CGGCAG came in with a binding signal of 0.889.

The sequence CCGAGA displayed a binding signal of 0.539.

For TGAGAT, the binding signal is 0.658.

GGCCAA: the binding signal worked out at 0.795.

For the sequence ACAGCG, the binding signal came out at 0.741.

In the case of GCGGAT, the binding signal stood at 0.902.

In the case of GGCCCA, the binding signal was 0.902.

Take CACGGT: the binding signal was 0.908.

For the sequence CAGTAC, the binding signal is 0.793.

The sequence CAATCG came in with a binding signal of 1.03.

ACAGAC showed a binding signal of 0.81.

For TCGGCA, the binding signal is 0.777.

Turning to CGAGGA, the binding signal worked out at 0.676.

In turn, CCGAGG showed a binding signal of 0.58.

In turn, CCGTGG registered a binding signal of 0.394.

Sequence GCCCAG had a binding signal of 0.714.

On to AAGACC, for which the binding signal turned out to be 0.935.

GAGCGG gave a binding signal of 0.509.

Sequence CCAGGT yielded a binding signal of 0.696.

For CCAGTG, the binding signal turned out to be 0.379.

GTCGGT: the binding signal amounted to 0.264.

GTGGAG showed a binding signal of 0.456.

In turn, GTCCAG returned a binding signal of 0.672.

The sequence CTAGAG showed a binding signal of 0.87.

Sequence GGCCGA returned a binding signal of 0.844.

On to CGTGTA, for which the binding signal is 0.611.

As for ACGGGC, the binding signal was 0.731.

(Values after paper PMC7862700.)
